The source of these data is patent US20150017203A1, “COMBINATION PRODUCT FOR TREATING EXCESS WEIGHT AND/OR FOR IMPROVING THE FIGURE” (INSTITUT NATIONAL DE LA RECHERCHE AGRONOMIQUE - INRA, priority 2012, published 2015).

The assay in a line: Plasma dosages (non-esterified fatty acids, triglycerides, cholesterol, glucose). In kind it is in vivo, mice. The method, then:
100 male mice C57 Black 6/J aged 5 weeks (January, France) were accommodated in individual cages in the pet center of the INRA center, Theix, in thermoregulated premises (20-22° C.) and submitted to alternating 12 hour-cycles of light and darkness. […] The mice weight was measured every 2 weeks. Prior to being sacrificed, mice after 15 h fasting were anesthetized through barbital intraperitoneal injection (1.5 μl/g). Blood was collected in EDTA-containing specimen collectors before being centrifuged (12000 rpm, 4 min, room temperature). Plasma was thereafter collected, distributed in aliquots and frozen in liquid nitrogen, then stored at −80° C. The adipose peri-epididymal tissue, liver and leg triceps muscle (gastrocnemius muscle), tibialis and quadriceps muscles were weighted, frozen in liquid nitrogen, then stored at −80° C.

The mark [1] stands for this setting: difference with high-lipid diet alone (HL), mice, 3 weeks.

As for `CC(C)c1c(C(=O)Nc2ccccc2)c(-c2ccccc2)c(-c2ccc(F)cc2)n1CC[C@@H](O)C[C@@H](O)CC(=O)O` [Statin, Atorvastatin], under setting [1], the “Plasma levels: Non esterified fatty acids” value is on record as −11% and the “Plasma levels: Triglycerides” value is −13%. Also, for the setting “vs control mice”, the “Plasma levels of non-esterified fatty acids compared to control mice” value is reported as “to a lesser extent”.
